# Some entries share one result that the patent states for a list of compounds.
# System: Raji cells
# Format: cell-based, human
# Details: 100 nM for 72 h
row,SMILES,activity on viability of Raji cells (in words)
1,"COC(=O)[C@@]12OC[C@]34C([C@@H](O)[C@@H]1O)[C@@]1(C)CC(=O)C(OC(=O)C[C@H](C)NS(C)(=O)=O)=C(C)[C@@H]1C[C@H]3OC(=O)[C@H](OC(=O)C=C(C)C)[C@@H]24 (stereo partly drawn) [Compound 29, methyl (1R,2S,3S,3aS,3a1R,4R,6aR,7aR,11aS)-1,2-dihydroxy-8,11a-dimethyl-4-((3-methylbut-2-enoyl)oxy)-9-(((S)-3-(methylsulfonamido)butanoyl)oxy)-5,10-dioxo-1,4,5,6a,7,7a,10,11,11a,11b-decahydro-2H-3,3a1-(epoxymethano)dibenzo[de,g]chromene-3(3aH)-carboxylate]",lost activities
2,"COC(=O)[C@@]12OC[C@]34C([C@@H](O)[C@@H]1O)[C@@]1(C)CC(=O)C(OC(=O)C[C@@H](N)C(C)C)=C(C)[C@@H]1C[C@H]3OC(=O)[C@H](OC(=O)C=C(C)C)[C@@H]24 (stereo partly drawn) [Compound 30, methyl (1R,2S,3S,3aS,3a1R,4R,6aR,7aR,11aS)-9-(((R)-3-amino-4-methylpentanoyl)oxy)-1,2-dihydroxy-8,11a-dimethyl-4-((3-methylbut-2-enoyl)oxy)-5,10-dioxo-1,4,5,6a,7,7a,10,11,11a,11b-decahydro-2H-3,3a1-(epoxymethano)dibenzo[de,g]chromene-3(3aH)-carboxylate]",lost activities
3,"COC(=O)[C@@]12OC[C@]34C([C@@H](O)[C@@H]1O)[C@@]1(C)CC(=O)C(OC(=O)[C@@H]5CCCN5)=C(C)[C@@H]1C[C@H]3OC(=O)[C@H](OC(=O)C=C(C)C)[C@@H]24 (stereo partly drawn) [Compound 31, (1R,2S,3S,3aS,3a1R,4R,6aR,7aR,11aS)-1,2-dihydroxy-3-(methoxycarbonyl)-8,11a-dimethyl-4-((3-methylbut-2-enoyl)oxy)-5,10-dioxo-1,3,3a,4,5,6a,7,7a,10,11,11a,11b-dodecahydro-2H-3,3a1-(epoxymethano)dibenzo[de,g]chromen-9-yl L-prolinate]",lost activities
4,"COC(=O)[C@@]12OC[C@]34C([C@@H](O)[C@@H]1O)[C@@]1(C)CC(=O)C(OC(=O)C[C@@H](N)C5CC5)=C(C)[C@@H]1C[C@H]3OC(=O)[C@H](OC(=O)C=C(C)C)[C@@H]24 (stereo partly drawn) [Compound 32, methyl (1R,2S,3S,3aS,3a1R,4R,6aR,7aR,11aS)-9-(((R)-3-amino-3-cyclopropylpropanoyl)oxy)-1,2-dihydroxy-8,11a-dimethyl-4-((3-methylbut-2-enoyl)oxy)-5,10-dioxo-1,4,5,6a,7,7a,10,11,11a,11b-decahydro-2H-3,3a1-(epoxymethano)dibenzo[de,g]chromene-3(3aH)-carboxylate]",lost activities
5,"COC(=O)[C@@]12OC[C@]34C([C@@H](O)[C@@H]1O)[C@@]1(C)CC(=O)C(OC(=O)C[C@@H](N)C(F)(F)F)=C(C)[C@@H]1C[C@H]3OC(=O)[C@H](OC(=O)C=C(C)C)[C@@H]24 (stereo partly drawn) [Compound 33, methyl (1R,2S,3S,3aS,3a1R,4R,6aR,7aR,11aS)-9-(((R)-3-amino-4,4,4-trifluorobutanoyl)oxy)-1,2-dihydroxy-8,11a-dimethyl-4-((3-methylbut-2-enoyl)oxy)-5,10-dioxo-1,4,5,6a,7,7a,10,11,11a,11b-decahydro-2H-3,3a1-(epoxymethano)dibenzo[de,g]chromene-3(3aH)-carboxylate]",lost activities
